These are yes or no findings as the source states them, for the method shown. Some results given as binding are weak or reduced against the parent protein; the word gives no strength.
Assays:
Assay in all cases: ELISA, biotinylated antigen on neutravidin plate
human proGDF11 (human) = human proGDF11 (human) (UniProt O95390)
[1] = target: human mature GDF11 (human) (UniProt O95390)
[2] = target: human latent GDF11 (human) (UniProt O95390)
murine proGDF11 (mouse) = murine proGDF11 (mouse) (UniProt Q9Z1W4)
[3] = target: murine latent GDF11 (mouse) (UniProt Q9Z1W4)
human proGDF8 (human) = human proGDF8 (human) (UniProt O14793)
[4] = target: human prodomain GDF11 ARM8 (human)
[5] = target: human proGDF11 ARM8 (human)

Sequences of proteins named here, by UniProt entry; tags and fusion partners are left off. A change or cut given only in a name is not applied to a line headed by its entry.
UniProt O95390: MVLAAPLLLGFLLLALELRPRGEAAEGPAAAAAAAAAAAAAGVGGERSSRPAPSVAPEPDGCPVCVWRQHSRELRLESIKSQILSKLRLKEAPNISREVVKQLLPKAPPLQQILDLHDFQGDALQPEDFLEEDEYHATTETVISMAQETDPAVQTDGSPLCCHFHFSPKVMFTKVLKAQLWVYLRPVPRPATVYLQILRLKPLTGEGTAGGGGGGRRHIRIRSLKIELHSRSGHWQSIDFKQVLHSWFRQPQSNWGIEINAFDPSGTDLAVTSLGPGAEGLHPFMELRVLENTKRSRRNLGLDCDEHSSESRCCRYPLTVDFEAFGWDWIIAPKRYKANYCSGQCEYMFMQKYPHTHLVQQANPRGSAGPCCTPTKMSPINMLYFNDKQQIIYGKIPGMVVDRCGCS
UniProt Q9Z1W4: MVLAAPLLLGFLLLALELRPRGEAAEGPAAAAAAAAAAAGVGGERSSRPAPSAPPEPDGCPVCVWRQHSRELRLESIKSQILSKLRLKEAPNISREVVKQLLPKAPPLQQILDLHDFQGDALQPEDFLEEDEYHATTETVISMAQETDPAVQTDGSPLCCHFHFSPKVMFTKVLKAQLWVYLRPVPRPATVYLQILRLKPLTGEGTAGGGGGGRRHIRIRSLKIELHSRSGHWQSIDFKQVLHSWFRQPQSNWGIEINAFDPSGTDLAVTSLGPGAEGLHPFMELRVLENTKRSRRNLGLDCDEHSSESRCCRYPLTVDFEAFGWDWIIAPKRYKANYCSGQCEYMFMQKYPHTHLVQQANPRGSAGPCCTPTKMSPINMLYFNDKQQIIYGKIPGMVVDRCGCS
UniProt O14793: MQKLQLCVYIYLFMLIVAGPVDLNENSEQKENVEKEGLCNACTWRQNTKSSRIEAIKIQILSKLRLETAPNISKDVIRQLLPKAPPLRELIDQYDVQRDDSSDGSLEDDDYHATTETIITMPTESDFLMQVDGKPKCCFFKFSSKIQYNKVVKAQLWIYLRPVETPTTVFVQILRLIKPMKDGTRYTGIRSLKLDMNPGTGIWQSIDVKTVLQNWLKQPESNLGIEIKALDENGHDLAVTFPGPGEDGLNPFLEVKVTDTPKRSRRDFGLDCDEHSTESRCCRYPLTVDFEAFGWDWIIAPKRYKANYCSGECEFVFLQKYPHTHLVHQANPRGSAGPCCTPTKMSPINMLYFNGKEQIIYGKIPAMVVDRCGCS

Measured: binding

B1: GDF11 Inh-6 (antibody, V domains shown)
VH: QVQLQESGPGLVKPSETLSLTCTVSGGSISSSSYYWGWVRQPPGKGLEWIGEIYHSGSTNYNPSLKSRVTISVDTSKNQFSLKLSSVTAADTAVYYCARVGTSWEYYFDYWGQGTLVTVSS
VL: DIQMTQSPASLSASVGDRVTITCRTSQHIINYLNWYQQRPGKAPNLLIYKASTLQSGVPSRFSGSGSGTHFTLTISSLQPEDFATYYCQQYQSYPITFGQGTRLEIKR
binds: human proGDF11 (human) | [1] | [2] | murine proGDF11 (mouse) | [3]

B2: GDF11 Inh-3 (antibody, V domains shown)
VH: QVQLVQSGGGVVQPGRSLRLSCAASGFTFSSYAMHWVRQAPGKGLEWVAVISYDGSNEYYADSVKGRFTISRDNSKNTLYLQMNSLRAEDTAVYYCAKDFWSGYPQYNWFDPWGQGTLVTVSS
VL: EIVMTQSPATLSLSAGERATLSCRASQSVSNYLAWYQQKPGQAPRLLIYDASNRATGIPARFSGSGSGTDFTLTISSLEPEDFAVYYCQQYGSAPLTFGGGTNVEIKR
binds: human proGDF11 (human) | [2] | murine proGDF11 (mouse) | [3]

B3: GDF11 Inh-1 (antibody, V domains shown)
VH: EVQLLESRGGLVQPGRSLRLSCAASGFTFDDYAMHWVRQAPGKGLEWVSGISWNSGSIGYADSVKGRFTISRDNTKNSLYLQMNSLRAEDTGVYYCAREVTGDLDYWGQGTLVTVSS
VL: EIVMTQSPGTLSLSPGERATLSCRASQFLSSTYLAWYQQRPGQAPRLLIYSASNRATGVPDRFSGSGSGTDFTLKISRVEAEDVGVYYCMQATHWPYTFGQGTKLEIKR
not listed: [1] | [5]
binds: all other assays above

B4: GDF11 Inh-4 (antibody, V domains shown)
VH: QVQLVQSGAEVKKPGASVKVSCKASGYTFTSYGISWVRQAPGQGLEWMGWISAYNGNTNYAQKLQGRVTMTTDTSTSTAYMELRSLRSDDTAVYYCARTPPLWFGEYGAFDIWGQGAMVTVSS
VL: DIQMTQSPSSLSASVGDRVTITCQASQDISNYLNWYQQKPGKAPKLLIYDASNLETGVPSRFSGSGSGTDFTLTISSLQPDDFATYYCQQSYTTPITFGQGTRLEIKR
binds: human proGDF11 (human) | [2] | murine proGDF11 (mouse) | [3]

B5: GDF11 Inh-5 (antibody, V domains shown)
VH: EVQLVQSGAEVKKPGASVKVSCKASGYTFTGYYIYWVRQAPGQGLEWMGWIRPNSGDTNYAQKFQDRLTMTRDTSISTAYMELSRLRSDDTAVYYCAGNYDILTGYQAPLGYWGQGALVTVSS
VL: DIVLTQSPATLSVSPGERATLSCRASQRVISNYLAWYQQKPGQAPRLLIYGASSRATGIPDRFSGSGSGTDFTLSISRLEPEDFAVYYCQHYGPFGGGTKVEIKR
not listed: human proGDF8 (human)
binds: all other assays above

Source: patent US20180208648A1
